Data: PubChem BioAssay AID330 (DTP/NCI, 2004)
The list shows only some results of the screen, not a fair sample: it gathers tests that were run many times, whatever their T/C, doses with no T/C, and many T/C values between a quarter and a half above the control. Other doses and runs of a compound stand elsewhere. T/C gives the treated animals as a percentage of the vehicle group. Some doses have a count of surviving animals in place of a T/C: the source files T/C as zero there, which appears to mark a toxic dose or a test without result, not a measured value. Some survivor counts are full or nearly so, which does not show that the dose was tolerated: survival well below the control is almost never listed, so the zero probably covers shortened survival too. Survivors were counted at the toxicity check, usually on the fifth day, unless a day is given; later deaths do not show. Schedules are NCI's codes, read here as Q, the interval in days (D) or hours (H), X, the number of doses. Signs of the kind (2×) give the number of equal values in this list. Some doses were run more than once; the results are listed from low to high. Where survival is the endpoint, this PubChem deposit counts one and a half times the control or more as active, and values a quarter to a half above the control carry no call in these data; other NCI protocols may use other cut-offs. Some T/C values carry the count of animals alive at the toxicity check (mostly the fifth day); without a count, all were alive then.

Test system: P388 leukemia ip, CD2F1 mice, survival T/C
Assay: NCI In Vivo Anticancer Drug Screen. Data for tumor model P388 Leukemia (intraperitoneal) in CD2F1 (CDF1) mice
Settings: T/C endpoint: median survival time, higher T/C = longer survival
[1] = dose: 25.0 mg/kg/injection, schedule: Q04DX003 (ip), vehicle: saline
[2] = dose: 200.0 mg/kg/injection, schedule: Q01DX005 (ip), vehicle: saline with Tween-80
[3] = dose: 100.0 mg/kg/injection, schedule: Q01DX009 (ip), vehicle: Klucel (hydroxypropylcellulose) (HPC)
[4] = dose: 200.0 mg/kg/injection, schedule: Q01DX009 (ip), vehicle: Klucel (hydroxypropylcellulose) (HPC)
[5] = dose: 50.0 mg/kg/injection, schedule: Q01DX009 (ip), vehicle: Klucel (hydroxypropylcellulose) (HPC)
[6] = dose: 400.0 mg/kg/injection, schedule: Q04DX003 (ip), vehicle: saline with Tween-80
[7] = dose: 100.0 mg/kg/injection, schedule: Q01DX001 (ip), vehicle: Klucel (hydroxypropylcellulose) (HPC)

SMILES: Cc1c2cc[n+](C)cc2c(C)c2c1[nH]c1ccc(O)cc12
- T/C (dose: 0.25 mg/kg/injection, schedule: Q04DX003 (ip), vehicle: water): 127 % of control
- T/C (dose: 0.5 mg/kg/injection, schedule: Q04DX003 (ip), vehicle: water, evaluated on day 30): 136 % of control
- T/C (dose: 0.5 mg/kg/injection, schedule: Q04DX003 (ip), vehicle: water, evaluated on day 35): 130 % of control
- T/C (dose: 0.78 mg/kg/injection, schedule: Q04DX002 (ip), vehicle: saline): 138 % of control
- T/C (dose: 0.97 mg/kg/injection, schedule: Q04DX002 (ip), vehicle: saline): 132 % of control
- T/C (dose: 1.0 mg/kg/injection, schedule: Q04DX003 (ip), vehicle: water): 142 % of control
- T/C (dose: 1.3 mg/kg/injection, schedule: Q04DX002 (ip), vehicle: saline): 142 % of control
- T/C (dose: 1.62 mg/kg/injection, schedule: Q04DX002 (ip), vehicle: saline): 135 % of control
- T/C (dose: 2.16 mg/kg/injection, schedule: Q04DX002 (ip), vehicle: saline): 148 % of control
- T/C (dose: 2.7 mg/kg/injection, schedule: Q04DX002 (ip), vehicle: saline): 143 % of control
- survivor count (dose: 4.0 mg/kg/injection, schedule: Q04DX003 (ip), vehicle: water): 6 of 6 (2×)
- T/C (dose: 6.25 mg/kg/injection, schedule: Q04DX003 (ip), vehicle: saline): 129 % of control
- survivor count (dose: 12.5 mg/kg/injection, schedule: Q04DX003 (ip), vehicle: saline): 6 of 6
- T/C [1]: 132 % of control
- survivor count [1]: 4 of 6
- survivor count (dose: 200.0 mg/kg/injection, schedule: Q04DX003 (ip), vehicle: saline): 6 of 6

SMILES: Nc1ccc2ccc(NS(=O)(=O)N3CCCCC3)cc2c1
- T/C (dose: 25.0 mg/kg/injection, schedule: Q01DX005 (ip), vehicle: saline with Tween-80): 125 % of control
- T/C (dose: 50.0 mg/kg/injection, schedule: Q01DX005 (ip), vehicle: saline with Tween-80): 100, 107, 109 (2×), 111 % of control
- T/C (dose: 100.0 mg/kg/injection, schedule: Q01DX005 (ip), vehicle: saline with Tween-80): 111, 114, 115, 118, 137 % of control
- T/C [2]: 118, 135, 156, 160, 161 % of control
- T/C (dose: 400.0 mg/kg/injection, schedule: Q01DX005 (ip), vehicle: saline with Tween-80): 135 [9 of 10 alive], 147, 153, 154 % of control
- T/C (dose: 600.0 mg/kg/injection, schedule: Q01DX005 (ip), vehicle: saline with Tween-80): 128 % of control [8 of 10 alive]

SMILES: O=C1c2ccccc2C(=O)c2c(NCCNCCO)ccc(NCCO)c21
- T/C (dose: 10.0 mg/kg/injection, schedule: Q04DX002 (ip), vehicle: saline): 125 % of control
- T/C (dose: 20.0 mg/kg/injection, schedule: Q04DX002 (ip), vehicle: saline): 142 % of control
- T/C (dose: 40.0 mg/kg/injection, schedule: Q04DX002 (ip), vehicle: saline): 127 % of control
- T/C (dose: 80.0 mg/kg/injection, schedule: Q04DX002 (ip), vehicle: saline): 144 % of control

SMILES: C=Cc1cnc([N+](=O)[O-])n1C
- T/C [3]: 127 % of control
- T/C [4]: 127 % of control [5 of 6 alive]

SMILES: CCCCOc1ncnc2nc[nH]c12
- survivor count (dose: 200.0 mg/kg/injection, schedule: Q01DX005 (ip), vehicle: Klucel (hydroxypropylcellulose) (HPC)): 0 of 5

SMILES: O=C(O)Cn1c(=S)sc2ccccc21
- survivor count [5]: 0 of 6
- survivor count [3]: 0 of 6
- survivor count [4]: 0 of 6
- survivor count (dose: 400.0 mg/kg/injection, schedule: Q01DX009 (ip), vehicle: Klucel (hydroxypropylcellulose) (HPC)): 0 of 6

SMILES: C[CH2][Sn]([CH2]C)[S]CC(N)C(=O)O (stereo not given)
- T/C (dose: 15.0 mg/kg/injection, schedule: Q01DX005 (ip), vehicle: Klucel (hydroxypropylcellulose) (HPC)): 125 % of control
- survivor count (dose: 60.0 mg/kg/injection, schedule: Q01DX005 (ip), vehicle: Klucel (hydroxypropylcellulose) (HPC)): 0 of 6
- survivor count (dose: 120.0 mg/kg/injection, schedule: Q01DX005 (ip), vehicle: Klucel (hydroxypropylcellulose) (HPC)): 0 of 6
- survivor count (dose: 240.0 mg/kg/injection, schedule: Q01DX005 (ip), vehicle: Klucel (hydroxypropylcellulose) (HPC)): 0 of 6

SMILES: CC1=C(/C=C/C(C)=C/C=C/C(C)=C/C(=O)O)C(C)(C)CCC1
- survivor count [6]: 1 of 6

SMILES: CN(C)CCCNc1c2c(nc3ccc(Cl)cc13)CCCC2
- survivor count [2]: 0 of 6

SMILES: COCCNC(=S)SCCN(C(C)C)C(C)C
- survivor count [2]: 3 of 6

SMILES: O=C(Nc1ccc(C2=NCCCN2)cc1)c1ccc(C(=O)Nc2ccc(C3=NCCCN3)cc2)cc1
- T/C (dose: 4.32 mg/kg/injection, schedule: Q04DX003 (ip), vehicle: Klucel (hydroxypropylcellulose) (HPC)): 127 % of control
- T/C (dose: 5.0 mg/kg/injection, schedule: Q04DX003 (ip), vehicle: saline with Tween-80): 131 and 136 % of control
- T/C (dose: 7.2 mg/kg/injection, schedule: Q04DX003 (ip), vehicle: Klucel (hydroxypropylcellulose) (HPC)): 144 % of control
- T/C (dose: 10.0 mg/kg/injection, schedule: Q01DX009 (ip), vehicle: saline): 130 % of control [5 of 6 alive]
- T/C (dose: 10.0 mg/kg/injection, schedule: Q04DX003 (ip), vehicle: saline with Tween-80): 145 % of control
- T/C (dose: 10.8 mg/kg/injection, schedule: Q04DX003 (ip), vehicle: Klucel (hydroxypropylcellulose) (HPC)): 135 [7 of 8 alive] and 144 % of control
- survivor count (dose: 30.0 mg/kg/injection, schedule: Q04DX003 (ip), vehicle: Klucel (hydroxypropylcellulose) (HPC)): 4 of 8 and 5 of 8
- survivor count (dose: 50.0 mg/kg/injection, schedule: Q04DX003 (ip), vehicle: Klucel (hydroxypropylcellulose) (HPC)): 4 of 8
- survivor count (dose: 100.0 mg/kg/injection, schedule: Q04DX003 (ip), vehicle: saline with Tween-80): 0 of 6
- survivor count (dose: 200.0 mg/kg/injection, schedule: Q04DX003 (ip), vehicle: saline with Tween-80): 0 of 6
- survivor count [6]: 0 of 6

SMILES: Oc1ccc(O)c([P+](c2ccccc2)(c2ccccc2)c2ccccc2)c1
- T/C (dose: 200.0 mg/kg/injection, schedule: Q01DX009 (ip), vehicle: saline with Tween-80): 130 % of control

SMILES: C/C(=N\SC(c1ccccc1)(c1ccccc1)c1ccccc1)c1ccccc1
- survivor count (dose: 400.0 mg/kg/injection, schedule: Q01DX001 (ip), vehicle: saline with Tween-80): 6 of 6

SMILES: CC1c2c(cc(OC(=O)c3cccc(S(=O)(=O)F)c3)nc2OC(=O)c2cccc(S(=O)(=O)F)c2)C(=O)N1Cc1ccccc1 (stereo not given)
- survivor count [5]: 6 of 6
- survivor count [3]: 6 of 6
- survivor count [4]: 6 of 6

SMILES: COc1cc(OC(=O)N(CCCl)N=O)cc(OC)c1OC
- survivor count [7]: 1 of 6

SMILES: c1ncn(C23CC4CC(CC(C4)C2)C3)n1
- survivor count (dose: 12.5 mg/kg/injection, schedule: Q01DX001 (ip), vehicle: Klucel (hydroxypropylcellulose) (HPC)): 0 of 6
- survivor count (dose: 25.0 mg/kg/injection, schedule: Q01DX001 (ip), vehicle: Klucel (hydroxypropylcellulose) (HPC)): 0 of 6
- survivor count (dose: 50.0 mg/kg/injection, schedule: Q01DX001 (ip), vehicle: Klucel (hydroxypropylcellulose) (HPC)): 0 of 6
- survivor count [7]: 0 of 6 (2×)
- survivor count (dose: 200.0 mg/kg/injection, schedule: Q01DX001 (ip), vehicle: Klucel (hydroxypropylcellulose) (HPC)): 0 of 6
- survivor count (dose: 400.0 mg/kg/injection, schedule: Q01DX001 (ip), vehicle: Klucel (hydroxypropylcellulose) (HPC)): 1 of 6

SMILES: COc1ccc(CSC(=S)Nc2cccc(S(F)(F)(F)(F)F)c2)cc1
- survivor count (dose: 100.0 mg/kg/injection, schedule: Q01DX009 (ip), vehicle: saline with Tween-80): 6 of 6
- T/C (dose: 100.0 mg/kg/injection, schedule: Q01DX009 (ip), vehicle: saline): 125 % of control
